At least one structure is not confirmed: it was looked up by name or label, or the drawing left a doubt.
System: age-related macular degeneration (AMD)
Assay: Treatment of age-related macular degeneration with eye drops
Type: in vivo, human
Conditions: ophthalmic solution containing 0.1% retinoic acid as eye drop; compared with untreated eyes

CC1=C(/C=C/C(C)=C/C=C/C(C)=C/C(=O)O)C(C)(C)CCC1 [retinoic acid]
choroidal neovascularization: reduction in choroidal neovascularization
